Reference: the supplement of paper PMC10849652
The list shows a part of the results.

By UniProt entry, the sequences of proteins in these tests, tags left out. Where a name states a change or a piece, a line headed by the entry shows the natural chain unless it says otherwise.
UniProt Q13015: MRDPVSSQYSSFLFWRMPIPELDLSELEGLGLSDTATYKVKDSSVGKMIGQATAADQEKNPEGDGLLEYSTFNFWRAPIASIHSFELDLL
UniProt Q9NPJ1: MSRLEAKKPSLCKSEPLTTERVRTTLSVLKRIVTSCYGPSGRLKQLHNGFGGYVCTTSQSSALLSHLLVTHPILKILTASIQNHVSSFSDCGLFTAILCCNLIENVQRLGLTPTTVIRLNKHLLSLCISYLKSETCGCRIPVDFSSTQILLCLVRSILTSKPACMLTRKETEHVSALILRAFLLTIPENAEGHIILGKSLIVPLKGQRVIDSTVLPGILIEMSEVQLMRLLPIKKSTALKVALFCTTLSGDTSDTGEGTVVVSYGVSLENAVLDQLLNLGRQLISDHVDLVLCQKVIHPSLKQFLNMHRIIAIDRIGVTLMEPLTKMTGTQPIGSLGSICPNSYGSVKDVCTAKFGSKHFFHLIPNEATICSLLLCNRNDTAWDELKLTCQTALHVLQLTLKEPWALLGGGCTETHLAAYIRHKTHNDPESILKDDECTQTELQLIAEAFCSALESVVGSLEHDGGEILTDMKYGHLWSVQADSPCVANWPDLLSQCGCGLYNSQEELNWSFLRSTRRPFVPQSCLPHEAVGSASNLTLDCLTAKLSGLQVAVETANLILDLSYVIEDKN
UniProt Q9BRT3: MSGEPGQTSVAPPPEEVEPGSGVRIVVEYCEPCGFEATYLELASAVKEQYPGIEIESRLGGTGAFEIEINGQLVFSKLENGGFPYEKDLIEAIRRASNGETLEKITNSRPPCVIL
UniProt O75352: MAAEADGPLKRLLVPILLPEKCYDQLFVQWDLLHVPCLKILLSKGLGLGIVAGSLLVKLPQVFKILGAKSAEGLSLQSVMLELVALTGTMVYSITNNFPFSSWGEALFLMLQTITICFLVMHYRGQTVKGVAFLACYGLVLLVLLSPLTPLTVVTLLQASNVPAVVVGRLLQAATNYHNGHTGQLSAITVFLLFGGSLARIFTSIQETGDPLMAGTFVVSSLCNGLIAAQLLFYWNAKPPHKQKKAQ
UniProt Q8N5J2: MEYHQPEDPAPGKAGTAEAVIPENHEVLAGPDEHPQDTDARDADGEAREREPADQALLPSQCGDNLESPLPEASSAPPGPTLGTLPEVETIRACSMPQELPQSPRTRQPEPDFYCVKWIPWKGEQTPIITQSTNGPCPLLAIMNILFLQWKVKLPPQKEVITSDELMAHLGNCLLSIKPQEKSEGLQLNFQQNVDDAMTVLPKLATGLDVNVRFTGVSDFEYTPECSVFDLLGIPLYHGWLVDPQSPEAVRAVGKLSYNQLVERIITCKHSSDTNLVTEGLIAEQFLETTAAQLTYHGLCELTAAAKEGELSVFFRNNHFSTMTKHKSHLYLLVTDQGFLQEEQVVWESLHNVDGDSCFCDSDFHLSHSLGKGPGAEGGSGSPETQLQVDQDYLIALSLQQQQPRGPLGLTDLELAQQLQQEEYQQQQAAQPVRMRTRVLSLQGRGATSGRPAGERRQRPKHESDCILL
UniProt Q9NYP9: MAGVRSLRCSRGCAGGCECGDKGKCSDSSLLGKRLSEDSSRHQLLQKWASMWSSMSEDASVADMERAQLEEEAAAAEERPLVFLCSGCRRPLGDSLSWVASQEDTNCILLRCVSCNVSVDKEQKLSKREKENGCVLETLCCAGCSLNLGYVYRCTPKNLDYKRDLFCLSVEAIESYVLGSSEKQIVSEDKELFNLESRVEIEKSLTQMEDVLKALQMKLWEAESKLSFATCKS
UniProt Q9BWT6: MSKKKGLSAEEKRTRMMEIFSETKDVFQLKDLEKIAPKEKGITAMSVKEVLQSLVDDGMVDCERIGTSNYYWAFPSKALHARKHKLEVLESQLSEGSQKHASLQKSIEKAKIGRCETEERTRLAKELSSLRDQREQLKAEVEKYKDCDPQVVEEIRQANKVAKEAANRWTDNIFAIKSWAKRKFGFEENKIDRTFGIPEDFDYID

Legend:
Test in all cases: log2 fold change, soluble protein after heating vs DMSO (PISA); higher = thermal stabilisation; K562 lysate, 10 uM; active = over 0.2 and 3.5 SD of the protein, either way, in both replicates (recomputed)
[1] = compound: C1=CC=C(C=C1)[C@H](COC2=CC3=C(C=C2)NC(=O)N3)NC(=O)C4=CC=CN(C4=O)CC5=CC(=C(C=C5)F)F
Summary of the method: (§1)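 Values give the log-two fold change in thermal stability against solvent controls, from duplicates. Crude K562 extract at 1 mg/mL protein, made by dounce homogenisation in PBS pH 7.4 with 1 mM MgCl2, was treated with 10 μM compound for 30 min. After 3 min heating across 48°C-58°C, aliquots were pooled, adjusted to 0.5% NP-40 at 4°C and centrifuged at 21,000xg for 90 min. The supernatant was measured by TMTpro 16plex LC-MS/MS with channel sums equalised.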

[2] = compound: CC1=C(SC2=C1C(=N[C@H](C3=NN=C(N32)C)CC(=O)N)C4=CC=C(C=C4)Cl)C
Summary of the method: as §1

[3] = compound: CC1=C2C(=CC=C1)N=C(N(C2=O)C3=CC=CC=C3C)CN4C=NC5=C(N=CN=C54)N
Summary of the method: as §1

[4] = compound: Cc1sc2c(c1C)C(c1ccc(Cl)cc1)=N[C@@H](CC(=O)OC(C)(C)C)c1nnc(C)n1-2
Summary of the method: as §1

[5] = compound: c1ccc([C@@H]2C[C@H]2NC2CCNCC2)cc1
Summary of the method: as §1

Measured: log2 fold change

MLLT11 (UniProt Q13015)
inactive: [1] 0.007 | [2] -0.048 | [3] 0.109 | [4] -0.037 | [5] 0.003

MRPL16 (UniProt Q9NX20)
inactive: [1] -0.068 | [2] -0.109 | [3] 0.008 | [4] 0.079

MKKS (UniProt Q9NPJ1)
inactive: [1] -0.024 | [2] -0.07 | [3] 0.066 | [4] -0.19 | [5] 0.206

MIEN1 (UniProt Q9BRT3)
inactive: [1] -0.002 | [2] -0.025 | [3] 0.006 | [4] -0.007 | [5] 0.006

MPDU1 (UniProt O75352)
inactive: [1] -0.104 | [2] 0.037 | [3] 0.029 | [4] -0.111 | [5] -0.069

MINDY1 isoform 3 (UniProt Q8N5J2)
inactive: [1] 0.017 | [2] 0.061 | [3] -0.003 | [4] 0.028

MIS18A (UniProt Q9NYP9)
inactive: [1] 0.021 | [2] -0.054 | [3] -0.017 | [4] 0.023 | [5] 0.047

MND1 (UniProt Q9BWT6)
inactive: [1] 0.053 | [2] -0.013 | [3] -0.009 | [4] 0.024 | [5] 0.042

MRAS (UniProt O14807)
inactive: [1] -0.083 | [2] 0.074 | [3] 0.104 | [4] -0.126 | [5] -0.113
